# According to PubChem BioAssay AID540275 (National Center for Advancing Translational Sciences (NCATS), 2011):
# Protein sequences, listed by entry. Tags and fused reporters are not part of them.
# UniProt Q8NER1, whole entry, looked up: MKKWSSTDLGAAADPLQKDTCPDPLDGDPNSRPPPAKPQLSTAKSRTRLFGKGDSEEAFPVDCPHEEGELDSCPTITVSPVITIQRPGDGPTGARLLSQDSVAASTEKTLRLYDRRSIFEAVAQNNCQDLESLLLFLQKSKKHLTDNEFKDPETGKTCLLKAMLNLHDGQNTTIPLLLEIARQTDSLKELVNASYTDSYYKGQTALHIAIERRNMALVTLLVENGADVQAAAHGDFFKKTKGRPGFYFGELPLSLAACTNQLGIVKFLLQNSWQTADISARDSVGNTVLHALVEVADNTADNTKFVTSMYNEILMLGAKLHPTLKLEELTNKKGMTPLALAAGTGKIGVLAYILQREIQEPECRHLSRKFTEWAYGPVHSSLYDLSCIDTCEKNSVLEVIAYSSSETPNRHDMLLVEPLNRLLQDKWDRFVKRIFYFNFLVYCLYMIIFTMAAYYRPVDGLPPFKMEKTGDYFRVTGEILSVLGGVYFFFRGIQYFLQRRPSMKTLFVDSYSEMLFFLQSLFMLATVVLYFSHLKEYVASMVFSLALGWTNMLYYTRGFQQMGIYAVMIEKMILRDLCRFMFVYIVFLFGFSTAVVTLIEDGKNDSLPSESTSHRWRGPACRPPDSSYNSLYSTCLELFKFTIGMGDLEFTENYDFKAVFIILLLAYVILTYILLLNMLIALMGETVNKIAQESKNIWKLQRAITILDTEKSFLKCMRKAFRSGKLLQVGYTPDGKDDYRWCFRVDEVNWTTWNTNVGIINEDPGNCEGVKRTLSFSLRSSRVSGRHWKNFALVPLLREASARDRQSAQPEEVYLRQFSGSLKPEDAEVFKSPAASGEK
# In all, about 320,000 compounds went through this assay and about 620 (0.19%) were called active. Inconclusive results, whose numbers are uncertain, are shown with a selection of clear calls. Cut-off read from the data, not from the text of the source: active = activation above about 80%; inconclusive = between about 30% and that limit; inactive = weaker than that.
# Target: Transient receptor potential cation channel subfamily V member 1 (Homo sapiens) (UniProt Q8NER1)
# Assay: HTS Assay for Compounds that Act as Agonists of the Vanilloid Receptor 1; note: 0% is about no effect
# Settings: TRPV1-expressing cells, Fluo-8 calcium influx, agonist mode; at 8.33 µM, active compounds read high
# How it was run: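 TRPV1-expressing cells were cultured overnight at 35.5C and loaded with Fluo-8 calcium dye for 40 to 90 min at room temperature. After a 10 s baseline, compound was added and calcium influx was read kinetically for 3 min (ex 480/em 520 nm).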
row,SMILES,activation
1,CC(C)CC(=O)NC(=S)Nc1cc(C(F)(F)F)ccc1N1CCOCC1,inconclusive: 46.6%
2,COc1ccc(Oc2ccc(N/C=C3/CCCC3=O)cc2)cc1,inconclusive: 53.1%
3,O=C(/C=C/c1cccc([N+](=O)[O-])c1)NC1CC2CCC1C2 (stereo not given),inconclusive: 45.1%
4,O=C(NCc1ccc2c(c1)OCO2)c1cccc(S(=O)(=O)N2CCCCC2)c1,inconclusive: 35.3%
5,CCOC(=O)C1CCN(C(=O)Nc2ccc(C)c(Cl)c2)CC1,inconclusive: 49.3%
6,Cc1cc(C)nc(SCc2nc3nc(C)cc(C)n3c2Br)n1,inactive: 2.18%
7,CCc1ccc2c(CN3CCc4cc(OC)c(OC)cc4C3)cc(=O)oc2c1,inconclusive: 55.5%
8,Cc1c(F)cccc1NS(=O)(=O)c1ccc(OCCNS(C)(=O)=O)cc1,inactive: 0.481%
9,Cc1ccnc(NC(=O)c2cc3cc(F)ccc3s2)c1,inconclusive: 67.8%
10,CCOC(=O)c1[nH]c(Cc2[nH]c(C(=O)OCC)c(C)c2CCC(=O)OC)c(CCC(=O)OC)c1C,inactive: 6.67%
11,Nc1nn(-c2ccccc2)c(N)c1N=Nc1ccc2c(c1)OCO2,inconclusive: 63.5%
12,Cc1ccc(NC(=O)COc2ccccc2)cc1S(=O)(=O)N1CCCCCC1,inconclusive: 53.3%
13,Cc1ccc(-c2onc3ccc(C4OCCO4)cc23)cc1,inconclusive: 40%
14,O=C(NCc1cccs1)c1cc2c(s1)CS(=O)(=O)C2,inconclusive: 34.3%
15,Cc1cccc(C)c1NC(=O)c1ccccc1C(=O)O,inactive: 1.59%
16,Nc1nc(Nc2ccccc2)nc(NCc2ccco2)c1[N+](=O)[O-],inactive: -3.76%
17,Cc1ccc(NC(=O)COC(=O)CSC(=S)N2CCOCC2)cc1C,inconclusive: 36.2%
18,S=C(NCc1ccco1)Nc1ccc(Cl)cc1,inconclusive: 47.1%
19,NC(=O)C1CCN(CC(=O)c2c[nH]c3ccc(F)cc23)CC1,inactive: -0.875%
20,CCc1ccc(NC(=S)N2CCN(S(=O)(=O)c3ccccc3)CC2)cc1,inconclusive: 48.9%
21,CC(C)(C)c1ccc(OCC(=O)N/N=C/c2ccc(N3CCOCC3)cc2)cc1,inconclusive: 30.9%
22,O=c1[nH][nH]cc1C=NCc1cccc(C(F)(F)F)c1,inconclusive: 76.9%
23,CCc1cc(-c2n[nH]c(C)c2-c2nc(C)cs2)c(O)cc1OC,inactive: 1.02%

# Single values from the list.
# Entry of NC(=O)C1CCN(CC(=O)c2c[nH]c3ccc(F)cc23)CC1 under activation: inactive: -0.875%
# Entry of Cc1ccc(NC(=O)COc2ccccc2)cc1S(=O)(=O)N1CCCCCC1 under activation: inconclusive: 53.3%

# (next part)

row,SMILES,activation
1,COc1ccc(S(=O)(=O)c2nnn(-c3cccc(OC)c3)c2N)cc1,inconclusive: 60.4%
2,Cc1onc(C(=O)NCCc2ccccc2)c1[N+](=O)[O-],inconclusive: 73.2%
3,CC(C)(C)c1nnc2sc(SCC(=O)c3ccccc3)nn2c1=O,inconclusive: 30.2%
4,CN1CCN(c2ccc(C(=O)c3ccc(Br)cc3)cc2[N+](=O)[O-])CC1,inactive: 2.24%
5,Cc1ccc(-c2ccc(=O)n(Cc3cccc(Br)c3)n2)cc1,inconclusive: 66.7%
6,Cc1cccc(C(C)C)c1NC(=O)CN(C)Cc1cccc(F)c1,inconclusive: 43.1%
7,Cc1ccc(N(CC(=O)NC2CCCCC2C)S(=O)(=O)c2c(C)noc2C)cc1 (stereo not given),inconclusive: 39.2%
8,Cc1ccc(NC(=S)c2nc3ccccc3[nH]2)cc1,inconclusive: 40.9%
9,COc1ccccc1Nc1nc(C)cc(C)n1,inactive: 0.818%
10,O=C(/C=C/c1cccc([N+](=O)[O-])c1)c1ccc2c(c1)OCCO2,inconclusive: 31.6%
11,COc1cccc(C(=O)Nc2ncc3c(n2)CC(c2ccc(OC)cc2OC)CC3=O)c1 (stereo not given),inconclusive: 63.8%
12,COc1cc(OC)cc(C(=O)Nc2ccccc2N2CCOCC2)c1,inconclusive: 36.7%
13,CC(C)c1ccc(NC(=O)Nc2cnccn2)cc1,inconclusive: 37.9%
14,Cc1c(C(=O)N2CCCC(C(F)(F)F)C2)oc2ccccc12 (stereo not given),inconclusive: 37.1%
15,COc1cccc(-c2cc(C(=O)NCc3cccs3)no2)c1,inconclusive: 49.1%
16,Cc1ccc(C(=O)N/N=C/c2ccc(N3CCOCC3)cc2)c(C)c1,inconclusive: 35.9%
17,CCCCCCCC1CC(/C(C)=N/NC(N)=O)OC1=O (stereo not given),inconclusive: 41.2%
18,COc1ccc(CNC(=O)Nc2cccc(C(F)(F)F)c2)cc1OC,inconclusive: 61.1%
19,Cc1cc(C(=O)CCC(=O)N2CCN(S(=O)(=O)c3ccccc3)CC2)c(C)s1,inconclusive: 40.2%
20,C(=N/Nc1cc(N2CCOCC2)nc(N2CCOCC2)n1)/c1ccccc1,inconclusive: 50%
21,Cc1nc(-c2ccccc2)[nH]c(=O)c1Oc1ccc(Cl)cc1Cl,inconclusive: 64.2%
22,Cc1ccc2c(c1)C(c1ccccc1)N(C(=O)c1ccc(F)cc1)CC(=O)N2 (stereo not given),inconclusive: 33.2%
23,CC1(C)C2CCC1(C)C(OCCNCCOC(=O)Nc1ccccc1)C2 (stereo not given),inconclusive: 57.3%

# Compounds shown so far that have a halogen, in the order listed:
row,SMILES,activation
1,CC(C)CC(=O)NC(=S)Nc1cc(C(F)(F)F)ccc1N1CCOCC1,inconclusive: 46.6%
5,CCOC(=O)C1CCN(C(=O)Nc2ccc(C)c(Cl)c2)CC1,inconclusive: 49.3%
6,Cc1cc(C)nc(SCc2nc3nc(C)cc(C)n3c2Br)n1,inactive: 2.18%
8,Cc1c(F)cccc1NS(=O)(=O)c1ccc(OCCNS(C)(=O)=O)cc1,inactive: 0.481%
9,Cc1ccnc(NC(=O)c2cc3cc(F)ccc3s2)c1,inconclusive: 67.8%
18,S=C(NCc1ccco1)Nc1ccc(Cl)cc1,inconclusive: 47.1%
19,NC(=O)C1CCN(CC(=O)c2c[nH]c3ccc(F)cc23)CC1,inactive: -0.875%
22,O=c1[nH][nH]cc1C=NCc1cccc(C(F)(F)F)c1,inconclusive: 76.9%
4,CN1CCN(c2ccc(C(=O)c3ccc(Br)cc3)cc2[N+](=O)[O-])CC1,inactive: 2.24%
5,Cc1ccc(-c2ccc(=O)n(Cc3cccc(Br)c3)n2)cc1,inconclusive: 66.7%
6,Cc1cccc(C(C)C)c1NC(=O)CN(C)Cc1cccc(F)c1,inconclusive: 43.1%
14,Cc1c(C(=O)N2CCCC(C(F)(F)F)C2)oc2ccccc12 (stereo not given),inconclusive: 37.1%
18,COc1ccc(CNC(=O)Nc2cccc(C(F)(F)F)c2)cc1OC,inconclusive: 61.1%
21,Cc1nc(-c2ccccc2)[nH]c(=O)c1Oc1ccc(Cl)cc1Cl,inconclusive: 64.2%
22,Cc1ccc2c(c1)C(c1ccccc1)N(C(=O)c1ccc(F)cc1)CC(=O)N2 (stereo not given),inconclusive: 33.2%

# Further results follow.

row,SMILES,activation
1,CCC(NC(=O)Nc1ccc(O)cc1)(C(F)(F)F)C(F)(F)F,inconclusive: 71.8%
2,Cc1ccccc1CSCCNC(=O)c1ccc(Cl)c(S(=O)(=O)N2CCOCC2)c1,inconclusive: 45%
3,CCSc1cc(N2CCOCC2)nc(-c2ccc(Cl)cc2)n1,inconclusive: 36.1%
4,Cc1cc(C(=O)NCc2ccc(Cl)cc2)n(-c2ccccc2)n1,inactive: -2.3%
5,COc1cc2[nH]c(=S)nc(NCc3cccnc3)c2cc1OC,inactive: -2.05%
6,COc1ccc(CNC(=O)COc2cc3c(c4oc(=O)cc(C)c24)CCC(C)(C)O3)cc1OC,active: 80.7%
7,CC(C)c1ccc(CNc2nnnn2C)cc1,inconclusive: 56.8%
8,O=C(Nc1ccccc1N1CCCCC1)c1cccc(OC(F)F)c1,inconclusive: 31.7%
9,O=C(NCc1ccccn1)[C@@H]1C[C@H]1[C@@H](NP(=O)(c1ccccc1)c1ccccc1)c1ccccc1,inconclusive: 37.2%
10,CC(C)c1ccc(N2CC(C(=O)Nc3nccs3)CC2=O)cc1 (stereo not given),inconclusive: 56.4%
11,COc1ccc(C2=NS(=O)(=O)N(C)C(C(=O)N3CCC(C)CC3)=C2)cc1,inactive: 13.8%
12,Cc1c(NC(=O)Nc2ccc(F)cc2F)c(=O)n(-c2ccccc2)n1C,inconclusive: 54.6%
13,CC(=O)NCCC(=O)Nc1nc(-c2ccc3ccccc3c2)cs1,inconclusive: 45.3%
14,NC(=O)C1CCN(c2nc(-c3ccccc3)nc3ccccc23)CC1,inconclusive: 44.7%
15,CC(C)c1cc(C(F)(F)F)n2nc(C(=O)Nc3ccc4c(c3)OCO4)cc2n1,inconclusive: 30.4%
16,N/C(=N\OC(=O)c1ccc(Cl)c(Cl)c1)c1ccccn1,inconclusive: 37.9%
17,Cc1ccc(/C=N/n2c(C3CCCCC3)n[nH]c2=S)s1,inactive: 25.2%
18,O=C(NCCC1=CCCCC1)c1ccc(CN2CCOCC2)cc1,inconclusive: 47.2%
19,Cc1ccc(C(=O)Nc2ccncc2)cc1[N+](=O)[O-],inconclusive: 41.1%
20,CC(C)N(C(=O)N1CCN(c2ccnc3cc(Cl)ccc23)CC1)C(C)C,inconclusive: 32.9%
21,Cc1ccc(C(=O)N/C(=C\c2ccc(Cl)cc2)C(=O)NCC2CCCO2)cc1 (stereo not given),inconclusive: 45.3%
22,S=C(c1ccccc1)N(c1ccccc1)c1ccccc1,inconclusive: 30.2%
23,O=C(COC(=O)c1ccccc1Nc1ccc(SC(F)F)cc1)NC1CC1,inconclusive: 51.5%

row,SMILES,activation
1,Cc1nc(Nc2cccc(Cl)c2)c2oc3ccccc3c2n1,active: 85.8%
2,Cc1ccc(-c2cc(-c3n[nH]c(=S)n3C)c3ccccc3n2)cc1,inconclusive: 37.8%
3,O=C(Cc1ccc(Br)cc1)Nc1ccc(S(=O)(=O)N2CCCC2)cc1,inconclusive: 33.2%
4,CCOC(=O)c1sc(NC(=O)c2ccccc2)cc1C,inactive: 1.8%
5,COc1ccc(OCC(=O)N2CCN(S(=O)(=O)c3ccc(Cl)s3)CC2)cc1,inconclusive: 31.8%
6,O=C(CN(Cc1ccccc1)S(=O)(=O)c1ccc(Br)cc1)NCc1ccco1,inconclusive: 52.8%
7,Fc1ccccc1CNC(=S)Nc1ccc(Cl)cc1,inconclusive: 66.2%
8,Cc1ccc(C)c(CN2CCC(CNC(=O)Nc3ccc(C)c(F)c3)CC2)c1,inconclusive: 36.2%
9,COC(=O)c1cccc(NC(=O)Cc2nc(-c3ccccc3)sc2-c2ccc(C)cc2)c1,inconclusive: 37%
10,COc1cccc(CNC(=O)c2cc(C3CC3)nc3c2cnn3C(C)C)c1,inconclusive: 56.5%
11,CCN(CC)S(=O)(=O)c1ccc(O)c(C(=O)OCC(=O)NC2CCCC2)c1,inactive: 2.3%
12,CCc1cccc(NC(=O)Cn2ncn3c(cc4ccccc43)c2=O)c1,inconclusive: 30.9%
13,C=C(C)COc1ccc(-c2ncncc2-c2ccc(Br)cc2)c(O)c1,inconclusive: 35.3%
14,COc1ccc(C(=O)N2CCCC(Nc3ccc(F)cc3)C2)cc1F (stereo not given),inconclusive: 50.5%
15,CCOC(=O)C1CCN(C(=O)c2[nH]c3ccc(OC)cc3c2C)CC1,inactive: -2.15%
16,Cc1ccc(-c2ocnc2C(=O)Nc2ccccc2NC(=O)c2ccccn2)cc1,inconclusive: 36.3%
17,CCCC[C@@H]1CNC(=S)N1CCC12CC3CC(CC(C3)C1)C2,inconclusive: 36.5%
18,O=C(NCCCN1CCCC1=O)c1ccc2c(c1)NC(=O)c1ccccc1S2,inactive: 0.544%
19,CC(C)(C)C(=O)NC1=NN(c2c(Cl)cc(Cl)cc2Cl)C(=O)C1,inconclusive: 38.7%
20,O=C(Nc1cccc2ccccc12)c1ccc(Cn2cc(Cl)cn2)cc1,inconclusive: 57.3%
21,O=C(CCCCCn1c(=S)[nH]c2ccc(N3CCOCC3)cc2c1=O)NCc1ccc(Cl)cc1,inactive: -0.592%
